Laboratory results published in PMC12637224, “The nonconserved integrin cytoplasmic region determines integrin subtype–specific characteristics by modulating talin1 binding kinetics” (The Journal of Biological Chemistry, 2025).
These are yes or no findings as the source states them, for the method shown. Binding can be weak; no strength is given.

Target: GST-fused talin1 FERM F2–F3 domain
Test: BLI; Octet RH96; GST-talin1 FERM F2–F3 (10 μg/ml) immobilized on Octet GST Biosensors; synthetic integrin CT peptides at 4.9, 14.8, 44.4 and 133 μM as analytes in 25 mM Tris–HCl, 150 mM NaCl, 0.05% Triton X-100, pH 7.5; binding to GST alone subtracted; both purified

binding: binds
B1: synthetic integrin β7 cytoplasmic tail peptide (peptide, UniProt P26010 747-798)
peptide: RLSVEIYDRREYSRFEKEQQQLNWKQDSNPLYKSAITTTINPRFQEADSPTL
